Source: PubChem BioAssay AID652272 (Drosophila RNAi Screening Center, 2013)
In all, the deposit lists about 21,000 reagents; below is an unselected part of those with a known target gene and a result. In the full data, 503 (2.4%) were called active. 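Raw plate light values, not normalised; calls rest on replicate z-scores that were not deposited; hits include reporter decreases as well as increases.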 Names joined by + are all predicted targets of the reagent. Reagent sequences are not shown. Not given: the amount of reagent, the time to read-out.

Test: 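Genes whose knock-down decreases or increases Hedgehog reporter output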 (primary screen)
System: Drosophila clone 8 (Cl8) cells
Reagents: long dsRNA against Drosophila genes
Measurement: 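Plate reader light from a firefly reporter under a ptc promoter fragment that responds to Hedgehog, with Renilla light as transfection reference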
Scale: firefly Hh reporter signal: higher = more ptc reporter light; Renilla reference signal: higher = more Renilla control light
Call rule: 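Called a hit if the two-replicate mean z-score lies below -2 or above +3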
Calls: active = hit: reporter lowered or raised; inactive = not a hit

The opening 6 entries, to show the layout:
target gene	amplicon	firefly Hh reporter signal, replicate 1	firefly Hh reporter signal, replicate 2	Renilla reference signal, replicate 1	Renilla reference signal, replicate 2	call
dpr3	DRSC00395	87106	79572	2391	2087	inactive
dpr3	DRSC00396	69307	81722	2261	2139	inactive
CG10311	DRSC14228	86773	1.09e5	2809	2692	inactive
karr	DRSC20681	1.27e5	3.33e5	5050	12407	inactive
Vha100-5	DRSC02175	1.22e5	48006	3297	3764	inactive
Bre1	DRSC09742	1.29e5	1.54e5	4147	5920	inactive

Results, from the start:
target gene	amplicon	firefly Hh reporter signal, replicate 1	firefly Hh reporter signal, replicate 2	Renilla reference signal, replicate 1	Renilla reference signal, replicate 2	call
dpr3	DRSC00395	87106	79572	2391	2087	inactive
dpr3	DRSC00396	69307	81722	2261	2139	inactive
CG10311	DRSC14228	86773	1.09e5	2809	2692	inactive
karr	DRSC20681	1.27e5	3.33e5	5050	12407	inactive
Vha100-5	DRSC02175	1.22e5	48006	3297	3764	inactive
Bre1	DRSC09742	1.29e5	1.54e5	4147	5920	inactive
CG12288	DRSC02155	1.01e5	69290	2800	5697	inactive
Bro	DRSC08149	75299	36776	2480	2733	inactive
mtTFB2	DRSC15519	89750	1.44e5	3113	4018	inactive
shtd	DRSC20166	1.71e5	98551	3722	2308	inactive
CG14488	DRSC06460	1.06e5	37573	2947	2531	inactive
CG17198 + CG17197	DRSC15190	6.96e5	1.60e5	33697	5027	inactive
CG17198 + CG17197	DRSC15191	6.04e5	1.17e5	27863	3578	inactive
CG10508	DRSC11612	1.44e5	1.12e5	5729	4690	inactive
CG10508	DRSC11613	91509	1.73e5	2336	5074	inactive
Had1	DRSC20216	71357	1.76e5	2582	7255	inactive
sip1	DRSC03609	63920	36640	1760	3530	inactive
REPTOR	DRSC14626	90976	1.07e5	4208	3995	inactive
kl-2	DRSC21136	64677	1.98e5	2291	9049	inactive
indra	DRSC08558	78755	69616	3939	3297	inactive
RpLP1	DRSC00783	67716	27955	2533	1241	active
CG5026	DRSC10470	96160	1.19e5	4289	4611	inactive
CG17944	DRSC12572	1.03e5	1.26e5	4296	3751	inactive
lncRNA:CR42862 + CG33229	DRSC08497	1.45e5	89680	5977	3635	inactive
Fas3	DRSC01638	78951	1.66e5	1863	8760	inactive
Fas3	DRSC03326	1.27e5	51960	3084	2512	inactive
Snoo	DRSC01008	5.58e5	2.42e5	28056	9712	inactive
Snoo	DRSC03004	1.01e5	79622	3504	3269	inactive
Snoo	DRSC03035	96459	61492	2386	4969	inactive
CG13658	DRSC14659	6.62e5	1.23e5	33111	3906	inactive
Coa8	DRSC17959	1.22e5	2.54e5	4396	8057	inactive
Adgf-A2	DRSC09507	1.77e5		3880		inactive
Gld2	DRSC15863	1.75e5	1.68e5	11545	3603	inactive
CG13678	DRSC10036	6.34e5	1.14e5	4212	4212	inactive
Atac2	DRSC02053	86372	58624	3376	2453	inactive
CG14326	DRSC14805	93638	75382	2257	265	inactive
CG14324	DRSC14803	80424	83796	2928	349	inactive
CG31174	DRSC13518	61555	2.60e5	11840	6170	inactive
Su(P)	DRSC11291	1.17e5		3529	5997	inactive
CG15580	DRSC12266	76448	1.21e5	2994	3448	inactive
Men-b	DRSC16736	84374	80547	2871	2172	inactive
CG2126	DRSC15418	84376	2.11e5	2934	6747	inactive
Dbx	DRSC08270	84708	40819	2848	3436	inactive
Dbx	DRSC08271	80075	61413	2954	3797	inactive
Dbx	DRSC08394	86266	45462	2778	3288	inactive
Synj	DRSC04526	81672	72800	3281	2886	inactive
Adck1	DRSC04394	1.01e5	56938	3939	2136	inactive
Rcd5	DRSC08180	1.00e5	73095	2521	1787	active
drongo	DRSC00814	95433	83625	3600	3189	inactive
CG10602	DRSC02075	84818	63794	3548	2736	inactive
Mabi	DRSC02489	2.23e5	89289	5257	7026	inactive
CG32720	DRSC17529	5.34e5	2.08e5	29733	4426	inactive
CG17726	DRSC15255	7.43e5	1.19e5	4956	4956	inactive
Ref2	DRSC02563	76760	48688	2192	4618	inactive
CG32628 (retired record)	DRSC19405	95233	2.84e5	3000	12834	inactive
Mccc2	DRSC04987	75274	55495	1864	3346	inactive
Traf6	DRSC18725	1.35e5	2.85e5	5280	10281	inactive
